Data as given in PubChem BioAssay AID1224826 (NIAID, 2016)
Screen: 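Genes that change LPS-induced Tnf promoter activity in mouse macrophages when knocked down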 (primary screen). Cells: RAW264.7 G9 macrophages from mouse bearing reporters for p65 (GFP) and the Tnf promoter (mCherry). Reagent: siRNA pool against mouse genes, 100 nM. Duration: 16 h of LPS stimulation, after 2 days of siRNA transfection. Challenge: bacterial lipopolysaccharide (Salmonella minnesota R595), 10 ng/ml. Read-out: 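Imaged Tnf reporter mCherry in nuclei, minus background, normalised per plate to the median and expressed as robust z-scores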. Reading the numbers: Tnf reporter robust z-score: higher = stronger Tnf promoter reporter signal after LPS; Tnf reporter intensity: higher = stronger Tnf promoter reporter signal. Hit rule: 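Called active when robust z-score is at most -1.3, matching the median of the Tlr4 knock-down control, or over 3; control wells and wells with under 50 cells never active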. Meaning of the calls: active = Tnf reporter clearly lowered or raised; inactive = no clear change in Tnf reporter.
In all, the deposit lists about 17,000 reagents; this is a random part of them. About 1,110 of them (6.6%) were called active. 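Active means lowered or raised reporter signal; replicate intensities are raw and not normalised per plate.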 A number with no mark means an inactive call. Not all columns of the deposit are shown.

The opening 3 entries as a preview:
no.	gene	PubChem SID	Tnf reporter robust z-score	fewer than 50 cells in well	Tnf reporter intensity, replicate 1
1	Magel2 (MAGE family member L2)	SID315470597	-0.76	enough cells in well	175
2	Arhgdig (Rho GDP dissociation inhibitor gamma)	SID315466877	-0.9	enough cells in well	121
3	Or8b54 (olfactory receptor family 8 subfamily B member 54)	SID315480426	1.4	enough cells in well	216

The list itself, from the first entry:
no.	gene	PubChem SID	Tnf reporter robust z-score	fewer than 50 cells in well	Tnf reporter intensity, replicate 1
1	Magel2 (MAGE family member L2)	SID315470597	-0.76	enough cells in well	175
2	Arhgdig (Rho GDP dissociation inhibitor gamma)	SID315466877	-0.9	enough cells in well	121
3	Or8b54 (olfactory receptor family 8 subfamily B member 54)	SID315480426	1.4	enough cells in well	216
4	Rad9b (RAD9 checkpoint clamp component B)	SID315478921	-1.21	enough cells in well	61.4
5	Rad9b (RAD9 checkpoint clamp component B)	SID315478922	1.24	enough cells in well	254
6	Smim10l2a (small integral membrane protein 10 like 2A)	SID315481266	0.73	enough cells in well	222
7	Mapk12 (mitogen-activated protein kinase 12)	SID315470715	-0.24	enough cells in well	166
8	Or10j7 (olfactory receptor family 10 subfamily J member 7)	SID315480407	-0.88	enough cells in well	122
9	D130079A08Rik (RIKEN cDNA D130079A08 gene)	SID315481364	-0.2	enough cells in well	199
10	Caskin2 (CASK-interacting protein 2)	SID315477141	-0.85	enough cells in well	71.8
11	Ackr5 (atypical chemokine receptor 5)	SID315465313	0.24	enough cells in well	180
12	Apba1 (amyloid beta precursor protein binding family A member 1)	SID315481194	1.87	enough cells in well	290
13	Soat2 (sterol O-acyltransferase 2)	SID315478304	0.64	enough cells in well	349
14	Maml2 (mastermind like transcriptional coactivator 2)	SID315480920	0.48	enough cells in well	214
15	Il1rl2 (interleukin 1 receptor-like 2)	SID315476615	0.1	enough cells in well	240
16	Or52h7 (olfactory receptor family 52 subfamily H member 7)	SID315480655	4.45 (active)	enough cells in well	242
17	A930012M17	SID315482022	0.34	enough cells in well	150
18	Dcaf13 (DDB1 and CUL4 associated factor 13)	SID315478263	3.8 (active)	enough cells in well	628
19	Eddm3b (epididymal protein 3B)	SID315478229	-1.04	enough cells in well	126
20	Ipp (IAP promoted placental gene)	SID315467490	2.87	enough cells in well	357
21	Mtrf1l (mitochondrial translational release factor 1-like)	SID315476747	-0.21	enough cells in well	129
22	Ndrg3 (N-myc downstream regulated gene 3)	SID315470702	0.54	enough cells in well	303
23	Ttc29 (tetratricopeptide repeat domain 29)	SID315474706	3.78 (active)	enough cells in well	493
24	Tlm (T lymphoma oncogene)	SID315469741	2.47	enough cells in well	212
